Numbering of substitutions follows the chain as printed. No constants are given. Whether binding was seen depends on the method and setting. Binding seen in cells or lysates may run through a third protein. Some entries that bind do so weakly or less than the wild type. Tags and fused reporters may be left off the sequences shown. Values belong to the molecule of their own block, whether it stands above or below them.
Columns and labels:
Get3 D57E-TEV-GFP [1] = biological target: T1, Get3 D57E-TEV-GFP (S. cerevisiae, UniProt Q12154 1-354, D57E); assay: co-IP; lysates from cells expressing HA–Erg1 (endogenous promoter) and Get3 DE–TEV–GFP or Get3 DE FIDD–TEV–GFP; anti-GFP MicroBeads, no detergent, TEV elution; immunoblot, signal normalised to Get3 in the eluate and to the input
T1 construct: Get3, cytosolic ATPase of the GET pathway, S. cerevisiae; ATPase-impaired client trap variant D57E; Captured on anti-GFP beads and eluted by TEV cleavage; the oligomeric state in the lysate was not measured; also called Get3 DE; Get3 D57E (DE); source: yeast (BY4741 background), ectopically expressed, in lysate made without detergent; not shown: TEV site-GFP, C-terminal, kept
T1 sequence (looked up): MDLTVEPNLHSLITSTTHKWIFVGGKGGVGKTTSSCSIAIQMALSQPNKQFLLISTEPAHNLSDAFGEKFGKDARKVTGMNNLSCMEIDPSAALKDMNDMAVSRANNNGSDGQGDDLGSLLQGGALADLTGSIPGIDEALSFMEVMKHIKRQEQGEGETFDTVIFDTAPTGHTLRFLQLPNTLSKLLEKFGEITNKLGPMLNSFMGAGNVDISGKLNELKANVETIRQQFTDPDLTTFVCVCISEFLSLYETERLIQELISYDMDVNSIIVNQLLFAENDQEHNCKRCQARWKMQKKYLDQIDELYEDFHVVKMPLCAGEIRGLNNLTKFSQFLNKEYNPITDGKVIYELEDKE

By UniProt entry, the sequences of proteins in these tests, tags left out.
UniProt Q01590: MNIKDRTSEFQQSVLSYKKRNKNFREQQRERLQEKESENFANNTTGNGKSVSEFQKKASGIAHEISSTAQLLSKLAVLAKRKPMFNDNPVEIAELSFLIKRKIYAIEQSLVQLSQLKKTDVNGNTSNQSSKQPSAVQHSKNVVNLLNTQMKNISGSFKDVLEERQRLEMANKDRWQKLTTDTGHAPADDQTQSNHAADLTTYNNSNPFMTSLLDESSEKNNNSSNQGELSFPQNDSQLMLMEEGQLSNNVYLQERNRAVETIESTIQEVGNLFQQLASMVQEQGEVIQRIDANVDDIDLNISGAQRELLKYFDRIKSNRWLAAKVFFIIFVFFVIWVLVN

[2] = biological target: T2, Get3 D57E F190D I193D-TEV-GFP (S. cerevisiae) (UniProt Q12154); assay: as above
T2 sequence: T1 sequence (looked up) with F190D, I193D

Get3 D57E-TEV-GFP [3] = biological target: T1, Get3 D57E-TEV-GFP; assay: co-IP; lysates from Δget3 cells ectopically expressing Get3 DE-TEV-GFP and HA-tagged Erg1 full length, ΔC, Δα1 or Δα2; anti-GFP MicroBeads, no detergent, TEV elution; immunoblot, signal normalised to Get3 in the eluate and to the input

binding (Get3 D57E-TEV-GFP [1]): binds | binding [2]: binds
Molecule: Sed5 (from UniProt Q01590 1-340)

binding (Get3 D57E-TEV-GFP [3]): binds | binding [2]: binds
B1: N-terminally HA-tagged Erg1 (full length) (enzyme, S. cerevisiae, UniProt P32476 1-496, looked up)
chain: MSAVNVAPELINADNTITYDAIVIGAGVIGPCVATGLARKGKKVLIVERDWAMPDRIVGELMQPGGVRALRSLGMIQSINNIEAYPVTGYTVFFNGEQVDIPYPYKADIPKVEKLKDLVKDGNDKVLEDSTIHIKDYEDDERERGVAFVHGRFLNNLRNITAQEPNVTRVQGNCIEILKDEKNEVVGAKVDIDGRGKVEFKAHLTFICDGIFSRFRKELHPDHVPTVGSSFVGMSLFNAKNPAPMHGHVILGSDHMPILVYQISPEETRILCAYNSPKVPADIKSWMIKDVQPFIPKSLRPSFDEAVSQGKFRAMPNSYLPARQNDVTGMCVIGDALNMRHPLTGGGMTVGLHDVVLLIKKIGDLDFSDREKVLDELLDYHFERKSYDSVINVLSVALYSLFAADSDNLKALQKGCFKYFQRGGDCVNKPVEFLSGVLPKPLQLTRVFFAVAFYTIYLNMEERGFLGLPMALLEGIMILITAIRVFTPFLFGELIG
notes: Erg1, squalene monooxygenase, S. cerevisiae; also called HA–Erg1; source: yeast, expressed from the endogenous ERG1 promoter (genomic) or ectopically in Δget3 cells, in lysate; not shown: HA, N-terminal, kept

From article PMC9123286 (The Journal of Cell Biology, 2022)
